Measurements as given in PubChem BioAssay AID1347426 (Functional Genomics Laboratory (NCATS/FGL), 2020).
About 1,400 (4.5%) of roughly 31,000 sequences were called active.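 How the source made its calls: active means median seed-adjusted z-score above 1 or below -1; inactive means the rest.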 This is one part of the list.

Assay: Novel Modifiers of Survival Motor Neuron (SMN) Protein: Gene Identification via Genome-wide siRNA Screen;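 further: luminescence tracks full-length SMN protein made from the SMN2 reporter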
Conditions: HEK293T SMN2-luciferase reporter, siRNA knockdown, 72 h; actives lie on both sides
How it was run: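 Luciferase signal, proportional to full-length SMN made from an SMN2 cDNA reporter in stable HEK293T cells, was read 72 h after siRNA reverse transfection. Values were expressed as MAD scores after non-targeting-control normalization and log10 conversion; seed analysis flagged off-targets.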

Sequence	median seed-adjusted z-score
GCCUCGCUGUAAUUCUGCCTT against NDUFA3	inactive: -0.062
GACAAGCAAUGGGAUGAAATT against AAK1	inactive: 0.27
GGGUUACAUUUUUGAAGCATT against SOX18	inactive: 0.0663
GAAGGACUGUUGGACCUCATT against SYTL1	inactive: 0.0856
AGGAUAUUGUGAUUCAGCATT against POLR2G	active: -4.19
GUUGAGACCUUAGAGCACATT against CSF1R	inactive: 0.38
CGCCCAAGUUUAUUUCAGATT against ZNF564	inactive: 0.382
CGGCGGUGAAGAAACGGAATT against SYTL1	inactive: 0.0856
GGUUGGUUAGUGUCUAUUATT against POLR1B	inactive: -0.434
CAUGAACCCAGUGAAGAUATT against IRF6	active: -1.79
GAAGAUUGAGGAGAUCUUUTT against CKM	inactive: -0.189
GGAUCUCUGGUUAAACACATT against RXRG	inactive: 0.16
ACAUCGCCCUUAUUGCUAUTT against FOXS1	inactive: 0
GCGAAUCCAGGAUCAAGAATT against TRIP4	inactive: -0.0385
GCAAAAAGGUGCGGAAGAATT against SYT5	inactive: 0.704
GCUACUAUCCUGACAGUUATT against SMARCC2	inactive: 0.0684
GGCUCUCGUUUUCCACGAATT against KCNK2	inactive: 0.257
GGGAUGUACUGUCCAACGATT against PPM1M	inactive: 0
GGCCUUCACAUGUAGCUCATT against ZNF35	inactive: -0.332
GCGAUGAGGUGGACUUGUATT against ST3GAL1	inactive: 0.255
CCCUCUCACUUGAAGAUCATT against HYAL1	inactive: -0.163
GACCAUGGAUAAUAAGAAATT against CLCN6	inactive: -0.136

Sequence	median seed-adjusted z-score
CGUAUAAGGAGGAAGCAAATT against CTDSP2	inactive: 0.498
CUCUUCUGGUCAACUGCAATT against NRIP2	inactive: 0.415
CCAUUCUUCUAGCAACUGATT against DDX47	inactive: -0.398
ACAUCUCAGGGACCCAUUUTT against FTSJ2	inactive: -0.277
GGUCUUGAAGUGUACCCUATT against ITGAV	active: 1.17
GCCCUUACAUACAACUGGATT against ZDHHC6	inactive: 0.199
CCGGGUCUGUGAUAUAUGATT against NAGA	inactive: -0.247
GGACGAGCAGCUACAGAAATT against CLTA	inactive: 0.243
CGACAGCUAUAUCCGCUUUTT against TTLL3	inactive: -0.194
GGCUUAUCCAUGCUAUAUATT against GCNT4	inactive: -0.0629
GCAGCACCGUGAAGACGAATT against ELA2B	inactive: -0.154
GGAUGUAAGGCAUAUUGGATT against ZNF674	inactive: 0.234
AUACAGAUCUAAUAGAGUUTT against NAT1	inactive: -0.0665
CCUCAUAAGUGUAAGAUAUTT against ZNF799	active: -1.02
GCGGGUGACUGAACUUGAATT against HOMER1	inactive: 0
GCGUAAUGUUUGUGACAAATT against ZNF782	inactive: 0.117
CACCCUAAUGGAUACAGCUTT against NTSR2	inactive: -0.125
GCAAGGUUCCUAGCGUGUATT against VCAM1	inactive: 0.19
GCUUUUAACAAUUCCUCAATT against ZNF99	inactive: 0.0778
UACCAGAUCUCAAAAAGAATT against CCR5	inactive: -0.0281
GGAGAGUUCAAAGACCUAATT against PRDX3	inactive: -0.0659
GGCUGAGUUUUGACACCAATT against CIRBP	inactive: -0.701

Sequence	median seed-adjusted z-score
GGAGGGCCUGUAACGUGUUTT against AKR1B10	inactive: 0
CACAGUGUUUGAGAACUAUTT against RHOA	inactive: -0.219
CCACAUUGGUUACCACUAATT against ITGAV	active: 1.17
ACGUGGCCGUUAUCCACAATT against NFKBIB	inactive: 0.00673
GUAUCGGGAUUGUUAAUGATT against RNF111	inactive: -0.0687
GGAGUGUCAUGUAUAGCAUTT against CYP26B1	inactive: -0.213
GCCUUAUGAAGAGUACCUATT against LAMA1	inactive: 0.494
GCACUACUCCGAGAAGUUATT against NEK6	inactive: -0.674
ACAUCUAUUUGUGACCUUATT against NHLH2	inactive: 0
GUAUGGAGUUACCACAAUATT against PTP4A1	inactive: 0.103
CUCUGGAAAUGUAACCCAUTT against SLC1A4	inactive: 0.209
CCUUAGACCGGGAACAACATT against PCDHGB5	inactive: 0.464
CCCGUUAAAUAAUUCCCUATT against FXYD3	inactive: 0.254
GAGAUUAGAUAGAUUCAAATT against PPP3CB	inactive: 0.0225
GAACAAUCAGUGGAUUAUATT against IL2RG	inactive: -0.155
GACUUAACCAAGAGACGUATT against THOC2	active: -1.22
GGACCUCAUUUGCAAUCUUTT against RNF139	inactive: 0.175
GAUGCAGCUGUAUCCAAGATT against PML	inactive: -0.415
GCUUUCACAUAAAACCCAATT against ZNF254	inactive: 0.088
CUUUCACACUCGACACUGATT against HOXA2	inactive: 0.335
CCGUAUUUUAUCAAGCUAATT against UNG	inactive: 0.259
AGGAAGUCAGGAAUUCUAATT against SEBOX	inactive: 0.2

Copied from the list.
CCUCAUAAGUGUAAGAUAUTT against ZNF799 | median seed-adjusted z-score: active: -1.02
GCGAAUCCAGGAUCAAGAATT against TRIP4 | median seed-adjusted z-score: inactive: -0.0385
GGGUUACAUUUUUGAAGCATT against SOX18 | median seed-adjusted z-score: inactive: 0.0663
GACCAUGGAUAAUAAGAAATT against CLCN6 | median seed-adjusted z-score: inactive: -0.136

Continued:

Sequence	median seed-adjusted z-score
GCAAGGAGUCUAUCCAUGATT against RPS6KB2	inactive: 0
GGAACACUAUAGUAAAGGUTT against SELI	inactive: 0
GAAAGUCCAGAUGAGGAUATT against KLF9	inactive: 0.767
CCUUCUGGGUGUUAUGGAATT against DUT	inactive: -0.0833
GUGCUAAAGAUCAUUGAUATT against TRIM32	inactive: 0.109
CCCUCACCCUGGUGUUUGATT against PCTK3	inactive: 0
CGAUUGUUUUUGCCUAUUUTT against SV2B	inactive: -0.43
GACUGUGAGAUAAUUGAAATT against ZBTB6	inactive: -0.225
GGACUACAGGGAUACCGAATT against AASDH	inactive: 0.156
GGACUUGACGAAAGUAACATT against TRPC6	inactive: -0.527
CCCUGAUAAUGUUUGAUAATT against COQ6	inactive: -0.0116
GUCUCUACAAAAUCUCUAATT against GPR137B	inactive: -0.0897
AGGAAUUUCUGCGAGAAAATT against CCDC88B	inactive: -0.153
CUCGCUCACUGGUGAAUCATT against ATP1A1	inactive: 0.271
CAGUGAAUCUCCAUAAACATT against ZNF382	inactive: 0.601
CCCUAUGAGUACGAGCUGATT against CACNA1B	inactive: 0.0963
GUGCAAAAGUAGAAGUCCATT against TBCEL	inactive: 0.567
CCUUCGAUGCUUCACUUUUTT against NSUN4	inactive: -0.491
CUACAGUUCCACAACUUCATT against MFRP	inactive: -0.209
GAAUCCAGAGUACAAUAUATT against PCDHGB4	inactive: 0.176
GCCUAUUACCAGUUGAAGATT against LEPREL2	inactive: 0.0022
GAAUGAACCUCUCUCCAAUTT against YWHAH	inactive: -0.125

Sequence	median seed-adjusted z-score
CGACAUCCCUGAUAUCCGUTT against FARS2	inactive: 0.587
GGGAACUUCUUGGAACUUUTT against KLK12	inactive: 0.243
GGUCGAUCACAAUCAACAATT against LIFR	inactive: 0.031
GGAAGAUUUAGGAUUCAGATT against OSBPL2	inactive: 0
GGAUGACAUUAGCCUAACATT against PRSS7	inactive: 0.0614
ACCUAGUGCUGGAACGGUATT against GPR119	inactive: -0.382
CAUGCUCCUUUAUCUCCGATT against F5	inactive: -0.127
GCGACGGAUUGGUUUAGAATT against SNX4	inactive: -0.144
AGGUGAAACUUCGAAGACATT against TRPM3	inactive: -0.633
GACUAGCUAUUACAAAAGATT against ARL5B	inactive: -0.506
GCAUUCACAUGUACUCCUATT against SLC26A5	inactive: -0.252
GGAAGAAUAUGUUUAGAUATT against UBE2N	inactive: 0.995
GAAAUUGUGCUGUGAUGUUTT against FCN2	inactive: 0.281
CAAUCGAGCUGUUGGAUAATT against MAP4K3	inactive: -0.49
GCACGGCAGCUUAAGGUAATT against RRAS2	inactive: -0.0229
GGCCUCUACUCUUCUGAAATT against PDLIM1	inactive: -0.189
CACCGUCUUCGAGAACUAUTT against RHOB	inactive: -0.776
GGGCCCAAAUCUUACCUUUTT against LIMD1	inactive: 0.587
AUCUGUGGUUUGUCCGAUATT against RNF114	inactive: 0.452
AGAUAACGGAUUUGGGAUATT against ZNF592	inactive: 0.0774
